In the supplement of paper PMC10849652:
This is one part of the list.

Amino acid sequences for entries named in this document (tags omitted). A change or cut given only in a name is not applied to a line headed by its entry.
UniProt P30405: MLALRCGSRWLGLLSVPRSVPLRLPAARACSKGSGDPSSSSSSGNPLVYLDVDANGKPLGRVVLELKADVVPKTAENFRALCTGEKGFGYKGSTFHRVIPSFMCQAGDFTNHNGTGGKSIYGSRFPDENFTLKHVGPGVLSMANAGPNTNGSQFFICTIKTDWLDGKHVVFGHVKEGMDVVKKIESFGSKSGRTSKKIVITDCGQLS
UniProt Q9ULJ8: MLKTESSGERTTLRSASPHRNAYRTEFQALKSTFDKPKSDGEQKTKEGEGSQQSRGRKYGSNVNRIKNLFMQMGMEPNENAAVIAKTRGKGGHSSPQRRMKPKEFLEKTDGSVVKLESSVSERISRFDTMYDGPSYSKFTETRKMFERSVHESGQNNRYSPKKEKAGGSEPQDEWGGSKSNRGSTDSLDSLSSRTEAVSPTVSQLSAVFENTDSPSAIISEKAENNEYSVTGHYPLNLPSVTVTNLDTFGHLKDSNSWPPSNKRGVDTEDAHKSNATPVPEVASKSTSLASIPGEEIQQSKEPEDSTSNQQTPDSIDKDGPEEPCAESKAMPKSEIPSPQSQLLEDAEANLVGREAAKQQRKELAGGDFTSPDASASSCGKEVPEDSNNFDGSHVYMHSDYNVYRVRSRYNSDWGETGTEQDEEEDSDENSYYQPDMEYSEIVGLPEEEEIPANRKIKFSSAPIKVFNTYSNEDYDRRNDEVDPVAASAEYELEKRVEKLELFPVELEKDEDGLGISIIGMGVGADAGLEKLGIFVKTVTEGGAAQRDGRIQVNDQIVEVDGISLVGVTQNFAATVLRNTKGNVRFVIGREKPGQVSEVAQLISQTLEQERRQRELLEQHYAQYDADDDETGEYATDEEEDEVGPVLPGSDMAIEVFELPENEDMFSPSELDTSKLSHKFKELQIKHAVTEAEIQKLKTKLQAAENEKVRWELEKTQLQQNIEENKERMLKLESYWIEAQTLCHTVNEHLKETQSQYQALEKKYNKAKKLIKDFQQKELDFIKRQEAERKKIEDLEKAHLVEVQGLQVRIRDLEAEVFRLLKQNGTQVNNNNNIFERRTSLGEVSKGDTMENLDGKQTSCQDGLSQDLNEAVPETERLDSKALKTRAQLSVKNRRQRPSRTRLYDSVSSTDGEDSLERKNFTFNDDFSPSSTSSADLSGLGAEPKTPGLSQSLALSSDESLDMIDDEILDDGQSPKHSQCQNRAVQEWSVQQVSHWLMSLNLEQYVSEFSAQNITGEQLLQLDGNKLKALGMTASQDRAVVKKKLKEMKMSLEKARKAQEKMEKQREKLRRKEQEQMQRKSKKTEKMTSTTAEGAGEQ
UniProt O94906: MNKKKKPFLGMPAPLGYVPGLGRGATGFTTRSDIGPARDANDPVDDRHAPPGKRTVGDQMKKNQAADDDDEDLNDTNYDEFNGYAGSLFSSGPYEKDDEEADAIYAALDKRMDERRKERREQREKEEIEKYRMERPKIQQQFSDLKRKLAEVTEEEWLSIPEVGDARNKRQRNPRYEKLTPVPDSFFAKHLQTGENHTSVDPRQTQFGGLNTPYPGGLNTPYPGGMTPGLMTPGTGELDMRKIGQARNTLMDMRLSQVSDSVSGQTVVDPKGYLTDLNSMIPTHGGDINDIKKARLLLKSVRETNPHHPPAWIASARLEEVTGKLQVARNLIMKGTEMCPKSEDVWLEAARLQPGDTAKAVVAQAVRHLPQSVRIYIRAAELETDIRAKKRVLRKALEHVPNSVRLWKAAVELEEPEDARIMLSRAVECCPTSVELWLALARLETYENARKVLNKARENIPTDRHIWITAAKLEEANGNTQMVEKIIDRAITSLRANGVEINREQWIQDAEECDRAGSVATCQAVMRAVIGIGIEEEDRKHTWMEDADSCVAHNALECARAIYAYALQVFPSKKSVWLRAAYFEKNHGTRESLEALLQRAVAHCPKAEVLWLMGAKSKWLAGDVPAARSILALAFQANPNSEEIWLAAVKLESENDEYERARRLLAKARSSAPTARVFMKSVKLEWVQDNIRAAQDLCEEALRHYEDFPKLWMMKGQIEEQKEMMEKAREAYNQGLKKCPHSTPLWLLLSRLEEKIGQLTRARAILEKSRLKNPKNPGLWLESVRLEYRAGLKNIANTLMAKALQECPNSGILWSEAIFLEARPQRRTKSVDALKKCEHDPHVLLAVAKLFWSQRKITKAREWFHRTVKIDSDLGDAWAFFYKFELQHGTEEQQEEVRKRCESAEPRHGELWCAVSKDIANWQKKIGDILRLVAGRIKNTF
UniProt Q9H2H8: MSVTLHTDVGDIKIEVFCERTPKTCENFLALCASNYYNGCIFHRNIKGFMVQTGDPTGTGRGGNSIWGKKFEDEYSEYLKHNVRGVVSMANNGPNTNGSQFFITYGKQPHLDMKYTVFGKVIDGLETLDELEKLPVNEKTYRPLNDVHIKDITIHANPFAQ
UniProt O43314: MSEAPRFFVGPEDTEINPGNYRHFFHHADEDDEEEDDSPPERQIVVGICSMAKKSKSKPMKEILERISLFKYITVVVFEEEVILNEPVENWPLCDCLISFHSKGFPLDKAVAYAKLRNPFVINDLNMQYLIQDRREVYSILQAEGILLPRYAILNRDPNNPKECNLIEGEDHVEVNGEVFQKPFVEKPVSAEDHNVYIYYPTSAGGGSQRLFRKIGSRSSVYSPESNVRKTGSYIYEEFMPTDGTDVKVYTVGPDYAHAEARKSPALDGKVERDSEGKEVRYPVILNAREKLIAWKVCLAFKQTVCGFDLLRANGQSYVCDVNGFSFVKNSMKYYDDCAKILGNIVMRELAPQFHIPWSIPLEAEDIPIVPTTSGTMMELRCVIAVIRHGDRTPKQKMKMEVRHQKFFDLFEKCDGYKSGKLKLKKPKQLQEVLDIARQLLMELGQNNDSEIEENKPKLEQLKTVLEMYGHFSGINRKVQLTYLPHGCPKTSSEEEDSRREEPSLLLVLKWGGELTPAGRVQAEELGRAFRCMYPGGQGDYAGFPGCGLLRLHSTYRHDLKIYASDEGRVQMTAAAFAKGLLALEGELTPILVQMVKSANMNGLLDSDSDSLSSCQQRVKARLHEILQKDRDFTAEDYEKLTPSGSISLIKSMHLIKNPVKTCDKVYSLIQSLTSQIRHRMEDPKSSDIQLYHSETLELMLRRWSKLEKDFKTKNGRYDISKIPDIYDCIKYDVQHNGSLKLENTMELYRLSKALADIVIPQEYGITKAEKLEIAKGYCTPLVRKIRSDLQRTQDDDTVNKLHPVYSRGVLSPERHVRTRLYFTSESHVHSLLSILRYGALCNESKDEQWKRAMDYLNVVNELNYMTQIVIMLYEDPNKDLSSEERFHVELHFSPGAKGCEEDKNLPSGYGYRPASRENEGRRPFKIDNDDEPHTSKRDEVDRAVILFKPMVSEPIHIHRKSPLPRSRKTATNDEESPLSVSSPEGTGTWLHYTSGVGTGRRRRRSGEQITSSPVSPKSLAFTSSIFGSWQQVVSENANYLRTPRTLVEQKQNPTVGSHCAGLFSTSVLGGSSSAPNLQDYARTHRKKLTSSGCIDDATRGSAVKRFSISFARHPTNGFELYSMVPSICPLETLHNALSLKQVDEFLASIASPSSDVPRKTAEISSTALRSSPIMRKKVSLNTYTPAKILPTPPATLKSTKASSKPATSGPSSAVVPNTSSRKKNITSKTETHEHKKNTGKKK
UniProt P07225: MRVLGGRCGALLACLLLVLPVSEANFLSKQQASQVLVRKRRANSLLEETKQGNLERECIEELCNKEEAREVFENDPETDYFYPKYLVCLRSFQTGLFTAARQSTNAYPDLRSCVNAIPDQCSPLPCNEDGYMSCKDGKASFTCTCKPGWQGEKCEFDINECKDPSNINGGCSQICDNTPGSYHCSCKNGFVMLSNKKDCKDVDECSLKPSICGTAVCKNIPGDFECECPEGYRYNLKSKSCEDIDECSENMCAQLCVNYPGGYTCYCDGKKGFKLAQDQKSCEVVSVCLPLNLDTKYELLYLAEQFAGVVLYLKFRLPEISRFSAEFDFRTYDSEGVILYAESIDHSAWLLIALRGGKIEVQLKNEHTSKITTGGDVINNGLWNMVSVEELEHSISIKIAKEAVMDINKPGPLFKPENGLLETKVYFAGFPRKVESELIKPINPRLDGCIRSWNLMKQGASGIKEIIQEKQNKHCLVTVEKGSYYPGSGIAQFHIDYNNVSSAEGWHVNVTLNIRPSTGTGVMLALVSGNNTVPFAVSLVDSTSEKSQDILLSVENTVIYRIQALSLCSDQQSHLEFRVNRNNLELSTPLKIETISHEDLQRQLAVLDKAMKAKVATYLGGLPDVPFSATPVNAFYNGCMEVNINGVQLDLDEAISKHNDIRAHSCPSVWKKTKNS
UniProt Q12972: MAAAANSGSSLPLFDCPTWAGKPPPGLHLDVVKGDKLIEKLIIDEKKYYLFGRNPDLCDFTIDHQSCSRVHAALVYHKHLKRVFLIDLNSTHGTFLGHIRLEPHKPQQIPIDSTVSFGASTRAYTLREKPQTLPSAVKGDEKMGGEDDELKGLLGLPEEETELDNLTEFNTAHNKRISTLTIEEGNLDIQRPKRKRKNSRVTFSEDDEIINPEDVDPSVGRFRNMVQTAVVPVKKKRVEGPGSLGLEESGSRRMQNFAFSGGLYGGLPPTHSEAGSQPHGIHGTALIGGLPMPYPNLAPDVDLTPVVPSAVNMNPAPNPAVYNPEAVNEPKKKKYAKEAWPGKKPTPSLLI
UniProt Q96I34: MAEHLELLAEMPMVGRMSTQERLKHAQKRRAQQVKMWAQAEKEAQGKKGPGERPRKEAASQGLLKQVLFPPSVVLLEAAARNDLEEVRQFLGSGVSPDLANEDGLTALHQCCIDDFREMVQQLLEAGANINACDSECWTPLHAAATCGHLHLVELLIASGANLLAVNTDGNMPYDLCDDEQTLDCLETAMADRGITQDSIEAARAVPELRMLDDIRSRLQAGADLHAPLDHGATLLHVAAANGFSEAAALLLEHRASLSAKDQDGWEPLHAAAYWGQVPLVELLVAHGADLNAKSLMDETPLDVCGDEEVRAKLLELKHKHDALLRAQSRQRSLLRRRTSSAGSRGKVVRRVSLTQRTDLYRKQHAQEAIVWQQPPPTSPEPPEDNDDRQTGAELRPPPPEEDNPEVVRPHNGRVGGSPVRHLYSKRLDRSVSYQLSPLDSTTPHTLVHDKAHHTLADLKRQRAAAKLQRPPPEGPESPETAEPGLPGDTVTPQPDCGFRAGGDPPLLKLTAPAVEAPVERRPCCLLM
UniProt Q5MIZ7: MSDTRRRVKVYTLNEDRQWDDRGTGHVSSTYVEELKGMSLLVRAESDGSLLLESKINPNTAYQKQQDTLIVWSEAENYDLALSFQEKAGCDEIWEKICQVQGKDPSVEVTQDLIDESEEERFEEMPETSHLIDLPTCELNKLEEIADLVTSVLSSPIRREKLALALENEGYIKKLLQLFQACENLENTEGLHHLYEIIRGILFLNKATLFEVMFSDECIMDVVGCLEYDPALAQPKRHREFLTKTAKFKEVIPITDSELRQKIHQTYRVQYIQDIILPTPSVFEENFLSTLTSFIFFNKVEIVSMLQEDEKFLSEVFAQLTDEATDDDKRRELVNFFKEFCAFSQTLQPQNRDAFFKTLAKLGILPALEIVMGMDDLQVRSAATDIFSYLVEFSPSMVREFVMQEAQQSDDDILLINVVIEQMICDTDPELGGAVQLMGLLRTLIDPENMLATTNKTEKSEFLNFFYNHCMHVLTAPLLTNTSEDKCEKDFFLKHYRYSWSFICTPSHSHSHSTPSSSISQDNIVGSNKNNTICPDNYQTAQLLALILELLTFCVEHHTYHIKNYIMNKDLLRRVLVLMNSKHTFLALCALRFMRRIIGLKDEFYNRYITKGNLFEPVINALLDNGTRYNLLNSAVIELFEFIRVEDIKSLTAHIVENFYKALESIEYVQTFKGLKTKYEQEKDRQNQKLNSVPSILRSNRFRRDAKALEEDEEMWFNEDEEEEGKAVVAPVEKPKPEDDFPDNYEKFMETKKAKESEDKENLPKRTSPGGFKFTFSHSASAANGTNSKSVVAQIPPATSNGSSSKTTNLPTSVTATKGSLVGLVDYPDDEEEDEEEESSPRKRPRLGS
UniProt O60678: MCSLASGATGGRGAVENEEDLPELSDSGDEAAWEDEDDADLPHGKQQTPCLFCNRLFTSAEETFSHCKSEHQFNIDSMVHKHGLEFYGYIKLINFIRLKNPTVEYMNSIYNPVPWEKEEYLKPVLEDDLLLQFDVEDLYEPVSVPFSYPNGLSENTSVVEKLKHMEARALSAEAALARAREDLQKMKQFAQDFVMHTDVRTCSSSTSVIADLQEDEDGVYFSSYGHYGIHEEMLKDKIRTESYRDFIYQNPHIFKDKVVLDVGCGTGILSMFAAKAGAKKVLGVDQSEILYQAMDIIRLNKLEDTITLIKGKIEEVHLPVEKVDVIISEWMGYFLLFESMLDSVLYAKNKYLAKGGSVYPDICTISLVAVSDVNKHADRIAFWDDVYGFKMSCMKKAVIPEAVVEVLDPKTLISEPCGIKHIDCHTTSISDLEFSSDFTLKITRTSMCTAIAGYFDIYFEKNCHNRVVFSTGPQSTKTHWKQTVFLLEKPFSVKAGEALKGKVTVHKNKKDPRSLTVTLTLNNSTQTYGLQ

Columns and labels:
Assay in all cases: log2 fold change, soluble protein after heating vs DMSO (PISA); higher = thermal stabilisation; K562 lysate, 10 uM; active = over 0.2 and 3.5 SD of the protein, either way, in both replicates (recomputed)
erlotinib = compound: C#Cc1cccc(Nc2ncnc3cc(OCCOC)c(OCCOC)cc23)c1 [erlotinib]
Outline: (§1)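 Dounce homogenisation of K562 pellets in PBS pH 7.4 with 1 mM MgCl2 produced a crude extract, used at 1 mg/mL protein. Exposure to 10 μM compound lasted 30 min, and aliquots were then heated for 3 min across 48°C-58°C, pooled and brought to 0.5% NP-40 at 4°C. The supernatant after 21,000xg for 90 min was quantified by TMTpro 16plex LC-MS/MS with channel sums equalised. Duplicate values are given as log-two fold change in thermal stability relative to solvent controls.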

[1] = compound: C/C(=N\NC(=O)C1=CC(=CC=C1)S(=O)(=O)N2CCOCC2)/C3=C(C=CC(=C3)Cl)O
Outline: as §1

[2] = compound: C1=CC(=CC=C1C2=NC3=C(N2)C=C(C=C3)C(=O)N)OC4=CC=C(C=C4)Cl
Outline: as §1

[3] = compound: C1=CC2=C(C=CC(=C2)/C=C\3/C(=O)NC(=NCC4=CC=CS4)S3)N=C1
Outline: as §1

[4] = compound: C1=CC2=NC=CN=C2C=C1/C=C/3\C(=O)NC(=O)S3
Outline: as §1

[5] = compound: C1=CC=C(C=C1)C2=NC(=C(N2)C3=CC=NC=C3)C4=CC(=C(C=C4)Cl)O
Outline: as §1

[6] = compound: C1=CC=C2C(=C1)C3=NNC4=CC=CC(=C43)C2=O
Outline: as §1

[7] = compound: C1CCN(C1)C(=O)NC2=CC=CC(=C2)NC3=NC=C(C(=N3)NCCC4=CN=CN4)Br
Outline: as §1

[8] = compound: C1CN(CCC1(CC2=CC=C(C=C2)Cl)N)C3=NC=NC4=C3C=CN4
Outline: as §1

IRAK-1-4 Inhibitor I = compound: C1COCCN1CCN2C3=CC=CC=C3N=C2NC(=O)C4=CC(=CC=C4)[N+](=O)[O-] [IRAK-1-4 Inhibitor I]
Outline: as §1

Measured: log2 fold change

PPM1B (UniProt O75688)
inactive: erlotinib -0.013 | [1] 0.009 | [2] -0.006 | [3] 0.019 | [4] 0.001 | [5] 0.004 | [6] -0.02 | [7] 0.007 | [8] -0.015 | IRAK-1-4 Inhibitor I 0.015

PQBP1 (UniProt O60828)
inactive: erlotinib -0.009 | [1] -0.041 | [2] 0.006 | [3] -0.02 | [4] -0.052 | [5] 0.053 | [6] 0.014 | [7] -0.016 | [8] 0.014 | IRAK-1-4 Inhibitor I 0.03

PPIF (UniProt P30405)
inactive: erlotinib -0.019 | [1] 0.029 | [2] 0.04 | [3] -0.028 | [4] -0.036 | [5] -0.031 | [6] -0.019 | [7] -0.02 | [8] 0.01 | IRAK-1-4 Inhibitor I -0.004

PPP1R9A isoform 3 (UniProt Q9ULJ8)
inactive: erlotinib 0.009 | [1] -0.152 | [2] -0.002 | [3] 0.017 | [4] -0.046 | [5] -0.078 | [6] -0.136 | [7] -0.062 | [8] 0.105 | IRAK-1-4 Inhibitor I 0.048

PPM1E (UniProt Q8WY54)
inactive: erlotinib -0.023 | [1] -0.051 | [2] -0.081 | [3] 0.018 | [4] -0.071 | [5] -0.018 | [6] 0.034 | [7] 0.023 | [8] 0.002 | IRAK-1-4 Inhibitor I 0.037

PPP1R7 (UniProt Q15435)
inactive: erlotinib -0.052 | [1] 0.011 | [2] -0.002 | [3] -0.008 | [4] -0.023 | [5] 0.002 | [6] 0 | [7] 0.016 | [8] -0.016 | IRAK-1-4 Inhibitor I -0.004

PPP2R1A (UniProt P30153)
inactive: erlotinib -0.001 | [1] 0.017 | [2] -0.03 | [3] -0.016 | [4] -0.009 | [5] 0.007 | [6] 0.009 | [7] 0.009 | [8] 0.003 | IRAK-1-4 Inhibitor I 0.004

PPP2R1B isoform 2 (UniProt P30154)
inactive: erlotinib 0.019 | [1] -0.045 | [2] -0.04 | [3] -0.025 | [4] 0.009 | [5] -0.003 | [6] -0.057 | [7] -0.029 | [8] 0.013 | IRAK-1-4 Inhibitor I -0.015

PRPF6 (UniProt O94906)
inactive: erlotinib 0.018 | [1] 0.038 | [2] -0.003 | [3] -0.035 | [4] 0.001 | [5] 0.037 | [6] -0.018 | [7] -0.056 | [8] -0.032 | IRAK-1-4 Inhibitor I -0.046

Quoted from the results shown (2 entries):
PPP1R9A isoform 3 (UniProt Q9ULJ8)
inactive: erlotinib 0.009 | [1] -0.152 | [2] -0.002 | [3] 0.017 | [4] -0.046 | [5] -0.078 | [6] -0.136 | [7] -0.062 | [8] 0.105 | IRAK-1-4 Inhibitor I 0.048

PPM1E (UniProt Q8WY54)
inactive: erlotinib -0.023 | [1] -0.051 | [2] -0.081 | [3] 0.018 | [4] -0.071 | [5] -0.018 | [6] 0.034 | [7] 0.023 | [8] 0.002 | IRAK-1-4 Inhibitor I 0.037

Additional results:

PPIL3 (UniProt Q9H2H8)
inactive: erlotinib 0.022 | [1] 0.071 | [2] 0 | [3] -0.016 | [4] -0.039 | [5] -0.012 | [6] -0.028 | [7] -0.004 | [8] 0.071 | IRAK-1-4 Inhibitor I 0.03

PRKD2 isoform 3 (UniProt Q9BZL6)
inactive: erlotinib 0.085 | [1] -0.047 | [2] 0.031 | [3] -0.112 | [4] 0.028 | [5] 0.014 | [6] -0.037 | [7] -0.175 | [8] -0.009 | IRAK-1-4 Inhibitor I 0.021

PPIP5K2 (UniProt O43314)
inactive: erlotinib 0 | [1] 0.018 | [2] -0.015 | [3] -0.025 | [4] 0 | [5] 0.009 | [6] -0.039 | [7] -0.003 | [8] -0.007 | IRAK-1-4 Inhibitor I -0.011

PROS1 (UniProt P07225)
inactive: erlotinib -0.008 | [1] -0.049 | [2] 0.021 | [3] 0 | [4] -0.021 | [5] -0.026 | [6] -0.006 | [7] 0 | [8] 0.054 | IRAK-1-4 Inhibitor I -0.028

PPP1R10 (UniProt Q96QC0)
inactive: erlotinib -0.021 | [1] 0.01 | [2] 0.054 | [3] 0 | [4] -0.006 | [5] 0.011 | [6] 0.002 | [7] 0.022 | [8] 0.027 | IRAK-1-4 Inhibitor I 0.01

PPIP5K2 (UniProt H0Y9S9)
inactive: erlotinib 0 | [1] -0.115 | [2] -0.071 | [3] -0.017 | [4] 0.057 | [5] 0.059 | [6] -0.083 | [7] -0.085 | [8] -0.083 | IRAK-1-4 Inhibitor I -0.059

PRKAR1A (UniProt P10644)
inactive: erlotinib 0.019 | [1] 0.038 | [2] -0.027 | [3] -0.012 | [4] -0.024 | [5] 0.003 | [6] -0.043 | [7] -0.074 | [8] -0.077 | IRAK-1-4 Inhibitor I 0.002

PPP3CB (UniProt P16298)
inactive: erlotinib -0.047 | [1] 0.026 | [2] 0.019 | [3] -0.018 | [4] 0.011 | [5] 0.013 | [6] 0.04 | [7] -0.035 | [8] -0.032 | IRAK-1-4 Inhibitor I 0.011

PPIP5K1 (UniProt Q6PFW1)
inactive: erlotinib -0.05 | [1] 0.006 | [2] 0.004 | [3] -0.021 | [4] -0.04 | [5] -0.017 | [6] 0.006 | [7] -0.016 | [8] 0.038 | IRAK-1-4 Inhibitor I 0.008

PPP1R8 (UniProt Q12972)
inactive: erlotinib 0.002 | [1] -0.032 | [2] 0.029 | [3] 0.002 | [4] -0.012 | [5] 0.008 | [6] 0.007 | [7] -0.009 | [8] 0.02 | IRAK-1-4 Inhibitor I 0.008

PPP1CC isoform 2 (UniProt P36873)
inactive: erlotinib -0.007 | [1] -0.018 | [2] 0.039 | [3] -0.006 | [4] 0.004 | [5] -0.003 | [6] -0.015 | [7] -0.009 | [8] 0.012 | IRAK-1-4 Inhibitor I -0.001

PPME1 isoform 4 (UniProt Q9Y570)
inactive: erlotinib -0.002 | [1] -0.006 | [2] 0.023 | [3] -0.005 | [4] -0.035 | [5] 0.017 | [6] 0.065 | [7] 0.013 | [8] 0.01 | IRAK-1-4 Inhibitor I -0.006

PPP1R16A (UniProt Q96I34)
inactive: erlotinib 0.177 | [1] -0.074 | [2] 0.018 | [3] 0.011 | [4] -0.11 | [5] -0.009 | [6] 0.02 | [7] -0.099 | [8] 0.058 | IRAK-1-4 Inhibitor I 0.058

PRDX3 (UniProt P30048)
inactive: erlotinib -0.008 | [1] -0.054 | [2] 0.034 | [3] 0.012 | [4] -0.052 | [5] 0.014 | [6] 0.007 | [7] 0.014 | [8] 0.011 | IRAK-1-4 Inhibitor I 0.018

PPP6R1 (UniProt Q9UPN7)
inactive: erlotinib 0.086 | [1] -0.001 | [2] -0.016 | [3] 0.011 | [4] 0.053 | [5] -0.016 | [6] 0.009 | [7] 0 | [8] 0.029 | IRAK-1-4 Inhibitor I 0.031

PRKCD (UniProt Q05655)
inactive: erlotinib -0.041 | [1] 0.016 | [2] -0.035 | [3] -0.047 | [4] -0.01 | [5] 0.006 | [6] -0.023 | [7] -0.069 | [8] 0.019 | IRAK-1-4 Inhibitor I 0.013

PPP1R12B isoform 6 (UniProt O60237)
inactive: erlotinib -0.081 | [1] 0.025 | [2] -0.103 | [3] -0.08 | [4] 0.057 | [5] -0.053 | [6] -0.07 | [7] -0.123 | [8] 0.037 | IRAK-1-4 Inhibitor I 0.153

PPP4R3B (UniProt Q5MIZ7)
inactive: erlotinib 0.012 | [1] 0.033 | [2] -0.018 | [3] 0.05 | [4] 0.011 | [5] -0.018 | [6] 0.013 | [7] -0.002 | [8] 0.007 | IRAK-1-4 Inhibitor I -0.009

PRMT3 (UniProt O60678)
inactive: erlotinib 0.014 | [1] -0.019 | [2] -0.029 | [3] -0.014 | [4] 0.021 | [5] 0.001 | [6] -0.005 | [7] -0.011 | [8] 0.009 | IRAK-1-4 Inhibitor I 0.026

PRPF40A (UniProt O75400)
inactive: erlotinib -0.011 | [1] -0.053 | [2] 0.06 | [3] 0.001 | [4] -0.043 | [5] -0.133 | [6] -0.034 | [7] -0.011 | [8] 0.011 | IRAK-1-4 Inhibitor I 0.017

PPP2R5A (UniProt Q15172)
inactive: erlotinib 0.037 | [1] 0.001 | [2] 0.005 | [3] 0.023 | [4] 0.016 | [5] -0.017 | [6] 0.009 | [7] 0 | [8] 0.061 | IRAK-1-4 Inhibitor I 0.015
